{"source": "paper doi:10.1101/2024.07.03.601496", "molecules": {"B1": {"name": "His::Exd (Extradenticle) (protein, UniProt P40427 1-376)", "chain": "MEDPNRMLAHTGGMMAPQGYGLSGQDDGQNAGSENEVRKQKDIGEILQQIMSISEQSLDEAQARKHTLNCHRMKPALFSVLCEIKEKTVLSIRNTQEEEPPDPQLMRLDNMLIAEGVAGPEKGGGGAAAASAAAASQGGSLSIDGADNAIEHSDYRAKLAQIRQIYHQELEKYEQACNEFTTHVMNLLREQSRTRPITPKEIERMVQIIHKKFSSIQMQLKQSTCEAVMILRSRFLDARRKRRNFSKQASEILNEYFYSHLSNPYPSEEAKEELARKCGITVSQVSNWFGNKRIRYKKNIGKAQEEANLYAAKKAAGASPYSMAGPPSGTTTPMMSPAPPQDSMGYPMGSGGYDQQQPYDNSMGGYDPNLHQDLSP"}}, "key": {"[1]": {"molecular_target": "T1, Exd (for EMSA) (Drosophila) (UniProt P40427)", "T1 sequence": "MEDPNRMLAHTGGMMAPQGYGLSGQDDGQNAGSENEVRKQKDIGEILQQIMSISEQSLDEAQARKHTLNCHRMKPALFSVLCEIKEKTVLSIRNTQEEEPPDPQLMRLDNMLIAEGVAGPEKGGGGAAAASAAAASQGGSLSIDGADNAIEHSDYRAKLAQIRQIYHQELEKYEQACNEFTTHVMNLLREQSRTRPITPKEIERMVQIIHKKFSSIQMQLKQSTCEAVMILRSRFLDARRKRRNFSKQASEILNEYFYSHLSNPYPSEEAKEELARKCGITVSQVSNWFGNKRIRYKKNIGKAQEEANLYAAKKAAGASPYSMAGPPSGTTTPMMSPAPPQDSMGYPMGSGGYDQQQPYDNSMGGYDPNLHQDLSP", "experiment": "native gel or EMSA"}, "[2]": {"molecular_target": "T2, Hth (for EMSA) (Drosophila) (UniProt O46339)", "T2 sequence": "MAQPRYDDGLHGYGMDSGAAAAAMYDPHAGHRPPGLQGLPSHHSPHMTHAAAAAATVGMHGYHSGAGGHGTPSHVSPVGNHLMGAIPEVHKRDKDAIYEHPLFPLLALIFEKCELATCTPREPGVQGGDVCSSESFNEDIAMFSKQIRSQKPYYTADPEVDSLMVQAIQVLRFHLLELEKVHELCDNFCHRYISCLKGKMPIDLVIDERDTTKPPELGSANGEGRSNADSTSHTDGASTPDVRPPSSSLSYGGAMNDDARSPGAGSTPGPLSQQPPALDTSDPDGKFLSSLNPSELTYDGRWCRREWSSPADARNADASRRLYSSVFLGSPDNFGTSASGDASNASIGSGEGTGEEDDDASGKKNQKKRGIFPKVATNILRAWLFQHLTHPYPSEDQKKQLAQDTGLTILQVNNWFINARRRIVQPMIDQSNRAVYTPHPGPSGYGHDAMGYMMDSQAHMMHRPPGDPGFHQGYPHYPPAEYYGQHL", "experiment": "native gel or EMSA"}, "[3]": {"molecular_target": "T1, Exd (for EMSA) (Drosophila)", "experiment": "native gel or EMSA", "remark": "listed apart in the source"}, "[4]": {"molecular_target": "T2, Hth (for EMSA) (Drosophila)", "experiment": "native gel or EMSA", "remark": "listed apart in the source"}, "[5]": {"molecular_target": "T3, VN::Exd (Exd fused to the N-terminal part of Venus) (Drosophila) (UniProt P40427)", "T3 sequence": "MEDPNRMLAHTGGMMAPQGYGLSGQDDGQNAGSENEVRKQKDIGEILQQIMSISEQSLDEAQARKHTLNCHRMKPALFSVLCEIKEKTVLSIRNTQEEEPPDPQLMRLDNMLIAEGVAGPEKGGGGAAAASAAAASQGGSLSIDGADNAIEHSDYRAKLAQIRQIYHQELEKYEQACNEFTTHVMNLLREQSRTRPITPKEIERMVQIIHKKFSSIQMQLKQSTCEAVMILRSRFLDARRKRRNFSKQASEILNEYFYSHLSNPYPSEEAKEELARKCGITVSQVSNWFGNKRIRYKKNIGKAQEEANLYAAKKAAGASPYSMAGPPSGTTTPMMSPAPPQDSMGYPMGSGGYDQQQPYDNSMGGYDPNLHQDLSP", "experiment": "split reporter"}, "[6]": {"molecular_target": "T4, His::Exd (Extradenticle) (Drosophila) (UniProt P40427)", "T4 sequence": "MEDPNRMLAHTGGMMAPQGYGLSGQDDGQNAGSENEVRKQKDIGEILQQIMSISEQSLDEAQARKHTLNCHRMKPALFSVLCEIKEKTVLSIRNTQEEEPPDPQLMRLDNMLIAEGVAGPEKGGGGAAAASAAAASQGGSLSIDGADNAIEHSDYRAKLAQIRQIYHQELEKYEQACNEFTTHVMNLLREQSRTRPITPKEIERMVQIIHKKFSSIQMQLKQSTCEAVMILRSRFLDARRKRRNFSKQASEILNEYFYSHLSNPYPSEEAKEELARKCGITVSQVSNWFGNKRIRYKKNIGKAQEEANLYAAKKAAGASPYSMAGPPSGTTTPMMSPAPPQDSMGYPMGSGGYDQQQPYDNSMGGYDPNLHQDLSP", "experiment": "co-IP"}, "[7]": {"molecular_target": "T5, Flag::Hth (Homothorax) (Drosophila) (UniProt O46339)", "T5 sequence": "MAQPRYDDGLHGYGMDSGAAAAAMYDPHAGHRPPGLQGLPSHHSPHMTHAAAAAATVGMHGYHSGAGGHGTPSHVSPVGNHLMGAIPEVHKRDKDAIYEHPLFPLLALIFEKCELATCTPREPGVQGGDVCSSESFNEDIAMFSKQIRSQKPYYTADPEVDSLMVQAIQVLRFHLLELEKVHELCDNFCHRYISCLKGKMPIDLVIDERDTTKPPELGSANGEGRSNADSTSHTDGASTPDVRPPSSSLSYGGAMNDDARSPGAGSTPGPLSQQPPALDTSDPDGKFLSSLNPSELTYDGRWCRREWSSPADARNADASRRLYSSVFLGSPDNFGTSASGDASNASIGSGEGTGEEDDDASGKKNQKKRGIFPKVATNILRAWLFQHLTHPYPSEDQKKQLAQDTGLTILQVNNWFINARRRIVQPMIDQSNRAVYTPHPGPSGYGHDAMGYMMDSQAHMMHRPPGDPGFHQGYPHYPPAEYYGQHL", "experiment": "co-IP"}, "[8]": {"molecular_target": "T5, Flag::Hth (Homothorax) (Drosophila)", "experiment": "co-IP", "remark": "listed apart in the source"}}, "note": "Like-named read-outs stand apart in the source and are kept apart here. These are yes or no findings as the source states them, for the method shown. For part of these data: Binding seen in cells or lysates may run through a third protein. Some entries that bind do so weakly or less than the wild type. For part of these data: Tags and fused reporters may be left off the sequences shown."}
{"molecule": "Abd-B (wild type, for EMSA) (from UniProt P09087 1-493)", "values": [{"measurement": "binding", "setting": "[1]", "result": "binds"}, {"measurement": "binding", "setting": "[2]", "result": "binds"}, {"measurement": "binding", "setting": "[3]", "result": "binds"}, {"measurement": "binding", "setting": "[4]", "result": "binds"}]}
{"molecule": "Abd-B::VC (Abd-B fused to the C-terminal part of Venus) (from UniProt P09087 1-493)", "values": [{"measurement": "binding", "setting": "[5]", "result": "binds"}]}
{"molecule": "HA::Abd-B (Abdominal-B, wild type) (from UniProt P09087 1-493)", "values": [{"measurement": "binding", "setting": "[6]", "result": "binds"}, {"measurement": "binding", "setting": "[7]", "result": "binds"}, {"measurement": "binding", "setting": "[8]", "result": "binds"}]}
{"molecule": "B1", "values": [{"measurement": "binding", "setting": "[7]", "result": "binds"}]}
